In PubChem BioAssay AID1671190 (National Center for Advancing Translational Sciences (NCATS), 2021):
Values joined by “and” are separate entries in the source; they are usually repeats but may differ in a detail not shown here. Equal entries are not always repeated. The whole screen tested about 580,000 compounds, of which about 6,100 (1.1%) were called active. This list was built around the results that the source calls inconclusive (neither active nor inactive); the mix of calls is not that of the screen. Calls follow the shape of the dose curve; as a rule, active = well fitted inhibition curve with a large enough effect; inconclusive = small, poorly fitted or top-dose-only effect, or another doubt; inactive = no such curve, though single readings can be large or run the other way. A potency beside an inconclusive call is a rough fit, not a confirmed value.

Sequences of proteins named here, by UniProt entry; tags and fusion partners are left off. A change or cut given only in a name is not applied to a line headed by its entry.
UniProt P18054: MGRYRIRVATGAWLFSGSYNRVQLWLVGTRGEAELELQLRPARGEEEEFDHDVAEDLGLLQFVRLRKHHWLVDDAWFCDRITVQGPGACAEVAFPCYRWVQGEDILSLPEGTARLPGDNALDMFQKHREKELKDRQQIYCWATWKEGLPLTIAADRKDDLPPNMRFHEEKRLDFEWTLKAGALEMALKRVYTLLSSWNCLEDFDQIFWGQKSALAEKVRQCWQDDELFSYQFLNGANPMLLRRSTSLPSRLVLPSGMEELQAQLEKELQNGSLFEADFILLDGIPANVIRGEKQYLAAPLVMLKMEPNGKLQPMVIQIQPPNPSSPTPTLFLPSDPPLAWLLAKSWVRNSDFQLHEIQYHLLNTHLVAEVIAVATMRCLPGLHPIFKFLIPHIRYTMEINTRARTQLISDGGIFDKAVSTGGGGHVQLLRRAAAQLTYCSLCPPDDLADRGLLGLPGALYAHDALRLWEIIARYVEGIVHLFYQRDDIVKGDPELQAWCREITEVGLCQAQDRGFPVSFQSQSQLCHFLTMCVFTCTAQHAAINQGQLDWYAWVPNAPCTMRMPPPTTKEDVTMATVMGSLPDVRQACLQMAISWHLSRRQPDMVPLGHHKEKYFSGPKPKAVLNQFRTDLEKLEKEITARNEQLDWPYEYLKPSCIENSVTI

target: Polyunsaturated fatty acid lipoxygenase ALOX12 (Homo sapiens) (UniProt P18054); test: Primary qHTS assay for inhibitors of human arachidonate 12S-lipoxygenase (ALOX12): Round 2; details: purified 12hLO, xylenol orange hydroperoxide absorbance; series mostly up to 108 µM
How it was run: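 Purified human 12hLO (150 nM final) in 25 mM Hepes, 0.01% Triton X-100, pH 7.0 was preincubated 15 min at room temperature with compound. Then 40 uM arachidonic acid was added, 30 min. Hydroperoxide was read by Fe-XO absorbance ratio 573/405 nm.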
Potency is read from the fitted curve at half-maximal effect.

| Structure (SMILES) | Potency |
| --- | --- |
| CCC(=O)N1CCN(c2ccc(NC(=O)c3c(OC)cccc3OC)cc2)CC1 | inactive |
| COc1ccccc1N1CCN(C(=O)/C=C/c2ccco2)CC1 | inconclusive: 3.98 µM [inhibitor, full curve, poor fit] |
| COC(=O)[C@@]1(Sc2ccc(C)cc2)CC(=O)N(c2ccc(Cl)cc2)[C@@H]1c1ccccc1 | inconclusive: 44.7 µM [inhibitor, partial curve, poor fit] |
| CC(C)(C)c1cc(C(C)(C)C)n(-c2ccccc2)n1 | inactive |
| CCc1ccccc1NC(=O)c1cc2c(Cl)nc3ccccc3c2s1 | inactive |
| COc1ccc(OC)c(CN2CCN(Cc3cc(OC)c(OC)c(OC)c3)CC2)c1 | inconclusive: 2 µM [inhibitor, full curve, poor fit] |
| Nc1ncnc2nc[nH]c12 | inconclusive: 12.8 µM [inhibitor, partial curve] and inconclusive: 44.7 µM [inhibitor, partial curve, poor fit] |
| Cc1cc(Nc2ccccc2F)n2ncnc2n1 | inconclusive: 4.47 µM [inhibitor, full curve, poor fit] |
| NC(=S)NN=Cc1nccc2c(C(F)(F)F)cccc12 | inconclusive: 44.7 µM [inhibitor, partial curve, poor fit] |
| COc1ccc(OC)c(NC(=O)Cn2cccc(-c3nc(-c4ccc(OC)c(OC)c4)no3)c2=O)c1 | inactive |
| CNC(=O)[C@@H]1C[C@H](n2cc(CNC(=O)Nc3ccc(Cl)cc3)nn2)CN1 | inactive |
| NC(=O)c1cc(-c2ccc(Br)cc2)nc2ccccc12 | inactive |
| COc1cc2[nH]c(=O)n(CCCCCC(=O)N3CCN(c4ccc(Cl)cc4)CC3)c(=O)c2cc1OC | inconclusive: 141 µM [inhibitor, partial curve, poor fit] |
| O=C(NCc1csc(-c2cnccn2)n1)C1CNCCO1 (stereo unspecified) | inactive |
| Cn1ccc(CN2CCC3(C2)NC(=O)c2ccccc2CO3)c1 (stereo unspecified) | inconclusive: 25.1 µM [inhibitor, full curve] |
| Cc1cc(F)ccc1NCC(=O)N1CCN(S(C)(=O)=O)CC1 | inactive |
| CC(=O)c1ccc(NC(=O)O[C@@H]2CO[C@H]3[C@@H]2OC[C@@H]3n2nnnc2-c2ccc(CN3CCOCC3)cc2)cc1 | inactive |
| Oc1ccc(Br)cc1-c1cc(-c2ccccc2Cl)[nH]n1 | inactive |
| CCn1c(=S)[nH]c2cc(S(=O)(=O)N3CCOCC3)ccc21 | inconclusive: 39.8 µM [inhibitor, partial curve, poor fit] |
| OCCN1CCN(CC/C=C2/c3ccccc3Sc3ccc(Cl)cc32)CC1 | inconclusive: 44.7 µM [inhibitor, partial curve, poor fit] |
| CC(=O)C1=C(O)C(=O)OC1c1ccc(Cl)cc1 (stereo unspecified) | inconclusive: 3.98 µM [inhibitor, full curve, poor fit] |
| Cc1ccc(C)c(S(=O)(=O)NC(Cc2c[nH]c3ccccc23)C(=O)O)c1 (stereo unspecified) | inconclusive: 100 µM [inhibitor, single point] |
| COc1ccc(CCNC(=O)C2CCN(S(=O)(=O)c3ccc(-n4cnnn4)cc3)CC2)cc1OC | inactive |
| O=C(c1cccs1)N1CCCC(c2nc3c(nnn3Cc3cccc(Cl)c3)c(=O)[nH]2)C1 (stereo unspecified) | inconclusive: 112 µM [inhibitor, partial curve, poor fit] |

3 entries from above, arranged by formula weight, largest number first:

| Structure (SMILES) | Potency |
| --- | --- |
| COc1ccc(OC)c(NC(=O)Cn2cccc(-c3nc(-c4ccc(OC)c(OC)c4)no3)c2=O)c1 | inactive |
| CNC(=O)[C@@H]1C[C@H](n2cc(CNC(=O)Nc3ccc(Cl)cc3)nn2)CN1 | inactive |
| CC(=O)C1=C(O)C(=O)OC1c1ccc(Cl)cc1 (stereo unspecified) | inconclusive: 3.98 µM [inhibitor, full curve, poor fit] |

Next part:

| Structure (SMILES) | Potency |
| --- | --- |
| c1ccc(Cc2nnc3sc(C4COc5ccccc5O4)nn23)cc1 (stereo unspecified) | inconclusive: 35.5 µM [inhibitor, partial curve, poor fit] |
| O=C(Nc1cc(F)cc(F)c1)Nc1cccc(-c2ccc(N3CCOCC3)nn2)c1 | inactive |
| COc1cc(OC)c(NC(=O)CCn2ccn3nc4c(c3c2=O)CCCC4)cc1Cl | inactive |
| FC(F)(F)c1ccc(Cl)c(-n2c(Cc3cccs3)n[nH]c2=S)c1 | inconclusive: 39.8 µM [inhibitor, partial curve, poor fit] |
| CC1(C)N=C(N)N=C(N)N1c1ccc(OCC(=O)N2CCOCC2)cc1 | inactive |
| CCC(=O)Oc1ccc2c(=O)c(Oc3cccc(OC)c3)c(C(F)(F)F)oc2c1 | inactive |
| CCC(C)(C)NC(=O)CN(Cc1ccc(OC)cc1)C(=O)CCC(=O)Nc1nccs1 | inactive |
| CCn1nnc(NC(=O)c2ccc(-c3ccc(Cl)cc3)o2)n1 | inactive |
| Cc1[nH]nc2ccc(-c3cncc(OC[C@@H](N)Cc4ccccc4)c3)cc12 | active: 7.69 µM |
| FC(F)(F)c1ccc2c(c1)nc1n2[C@@H](CNC2CCC2)COC1 | inactive |
| CC(Sc1ncccn1)C(=O)O (stereo unspecified) | inconclusive: 0.398 µM [inhibitor, full curve, poor fit] |
| COc1ccc(C2=C(O)C(=O)N(Cc3ccc(C)cc3)C2c2ccc(F)cc2)cc1 (stereo unspecified) | active: 17.8 µM |
| O=C(COC(=O)c1n[nH]c2ccccc12)Nc1ccccc1 | inactive |
| Cc1ccc(NC(=O)N/C=C/c2ccco2)cc1 | inconclusive: 11.2 µM [inhibitor, partial curve] |
| CCCCNC(=O)CC1S/C(=N/N=C/c2ccc(OC)cc2)NC1=O (stereo unspecified) | inactive |
| COc1ccc(CC(=O)NCc2ccc3c(c2)CCN3C(=O)c2cccc(C)c2)cc1 | inconclusive: 100 µM [inhibitor, partial curve, poor fit] |
| O=C(Nc1cnc(-c2cccnc2)nc1)C1CCCC1 | inactive |
| CCN(CC)S(=O)(=O)c1cccc(NC(=O)COc2ncnc3sc(C)c(C)c23)c1 | inactive |
| CC(NC(=O)C1CCCC1)c1ccc(C(F)(F)F)cc1 (stereo unspecified) | inconclusive: 0.447 µM [inhibitor, full curve, poor fit] |
| CN1CC(=O)N(C2CCCC2)Cc2c(NC3CCNCC3)ncnc21 | inconclusive: 2.51 µM [inhibitor, full curve, poor fit] |
| CC(Sc1ccc2nnc(-c3ccc(F)cc3)n2n1)C(=O)O (stereo unspecified) | inconclusive: 35.5 µM [inhibitor, partial curve] |
| Cc1nc(-n2nc(C)c(Cc3ccc4c(c3)OCO4)c2C)sc1C(=O)Nc1ccc(Cl)cc1 | inconclusive: 141 µM [inhibitor, partial curve, poor fit] |
| O=C(c1cccs1)N1C[C@@H](O)[C@H](n2cc(-c3ccc(F)cc3)nn2)C[C@@H]1c1ccccc1 | inconclusive: 50.1 µM [inhibitor, partial curve, poor fit] |
| O=C(CCC(=O)c1ccc(F)cc1)Nc1ccccc1Cl | inactive |

| Structure (SMILES) | Potency |
| --- | --- |
| OCCNCc1ccc(-c2ccccc2)o1 | inactive |
| Cc1cccc(Cn2cccc2CNS(=O)(=O)c2ccc(C)c(C)c2)c1 | inconclusive: 56.2 µM [inhibitor, partial curve, poor fit] |
| CS(=O)(=O)c1ccccc1NC(=O)COc1ccccc1C(=O)Nc1ccccc1 | inconclusive: 158 µM [inhibitor, partial curve, poor fit] |
| CN(C)C(=O)CCc1ccc2c3c([nH]c2c1)[C@]1(C)[C@@H](C(=O)N2CCCCC2)C[C@H](CC(=O)NCCCn2ccnc2)C(=O)N1CC3 | inconclusive: 44.7 µM [inhibitor, single point] |
| C=CCSc1nc2c(c(=O)[nH]c(=O)n2C)n1CCCC | inactive |
| CN1CCSc2ccc(C(=O)NCc3ccccc3)cc21 | inconclusive: 25.1 µM [inhibitor, partial curve, poor fit] |
| CN1c2ccccc2C(=O)N2CCc3c([nH]c4ccccc34)C21 (stereo unspecified) | inconclusive: 12.2 µM [inhibitor, partial curve, poor fit] |
| CCOC(=O)c1cc(NC(=O)Nc2ccc(Br)cc2)c(C)nc1C | inconclusive: 44.7 µM [inhibitor, partial curve, poor fit] |
| Cc1[nH]c2ccccc2c1C(=O)C(=O)NC(C)c1ccccc1 (stereo unspecified) | inactive |
| Fc1ccccc1CSc1nnc(-c2c[nH]c3ccccc23)n1C1CC1 | inconclusive: 35.5 µM [inhibitor, partial curve, poor fit] |
| FC(F)(F)c1cc(-c2ccccc2)nc(SCc2ccncc2)n1 | inactive |
| Cc1cc(Nc2ccc(C)c(Cl)c2)nc(N2CCOCC2)n1 | inconclusive: 112 µM [inhibitor, partial curve, poor fit] |
| CCOCCCNc1nc2cc(OC)c(OC)cc2c2nc(-c3ccccc3)nn12 | inactive |
| Fc1cccc(Cc2c(-c3cccc(Br)c3)nc3ccc(Br)cn23)c1 | inconclusive: 44.7 µM [inhibitor, partial curve, poor fit] |
| CCOC(=O)c1sc2cccc(F)c2c1COC(=O)c1ccoc1 | inactive |
| O=c1[nH]c2cc3c(cc2c(=O)n1CCc1nc(-c2cccc(C(F)(F)F)c2)no1)OCO3 | inconclusive: 35.5 µM [inhibitor, full curve, poor fit] |
| O=c1oc2ccccc2c(NC2CCCC2)c1NS(=O)(=O)c1cccc(F)c1 | inconclusive: 100 µM [inhibitor, single point] |
| COC(=O)[C@@]12CCCN1[C@H](c1ccc(SC3CCCCC3)cc1)[C@H]1C(=O)N(C)C(=O)[C@H]12 | inconclusive: 100 µM [inhibitor, single point] |
| CCOC(=O)C1=C(C)N=C2SC=C(CC(=O)N3CCCCC3)N2C1c1cccc(OC)c1 (stereo unspecified) | inactive |
| Clc1ccccc1Nc1ncnc2c1nc1n2CCCCC1 | inactive |
| CCOc1ccc(N=Nc2c(=O)[nH]n3c(C)cc(C)nc23)cc1 | inactive |
| O=C(COC(=O)c1cc(=O)c2ccccc2o1)c1ccc(Cl)c(Cl)c1 | inactive |
| COC(=O)c1ccc(/C=C(/C#N)C(=O)c2ccsc2)cc1 | inconclusive: 12.6 µM [inhibitor, single point] |
